This is an account of results in article PMC6739363.

For part of these data: No signal at the amounts used counts as a negative. For at least one entry, the source does not settle the construct or the ends of the probe.

Data set [1] deals with CrtR. Briefly: EMSA. The note with it: 0-0.4 pmol CrtR, 1.6 pmol probe in 50 ul, poly(dI-dC); EMSA: 10 mM Tris-HCl pH 7.2, 50 mM NaCl, 1 mM EDTA, 10% glycerol, 0.5 ug poly(dI-dC), 30 C 30 min; recombinant protein; residues 1-195; protein details: C-terminal 6xHis; label: Cy5 at 5' end; probe letters rebuilt from the primers and the genome; part of a longer molecule. Background: A gel shift assay detects complexes by their altered migration in electrophoresis.

In data set [2] the test system is CrtR. Briefly: DNase I footprinting. The settings on record: 10-80 pmol CrtR in 50 ul; footprint: 25 mM HEPES-KOH pH 7.9, 0.5 mM EDTA, 50 mM KCl, 10% glycerol, 30 C 30 min (DNase I 1 min at 25 C); recombinant protein; residues 1-195; protein details: C-terminal 6xHis; label: 32P on one strand; probe letters rebuilt from the primers and the genome.

In the case of “AACCAACACCTCACCCCATAAGTTATCGAAAGGTGATTTTTGCCCAGGGTCTTGATTCACAACGCGCCTTGCTGTAGGAAAAACAGGCCCCTTTGTGACATCGGCGCAGTTGTTCAACTATAATGGAACGCTGATCGTGGACAAGAGTTAACCATGAGATTGATTCACCCCTTTAAGCCTCCAAAGAAGTAGTTGACTCAACGCATTTCGGCATTTA (double strand) [PsigA control probe]”, the binding result in data set [1] is on record as “no binding”. In the case of “TTCCGACATGCCAGAACGATCAACTAATTCACTTTTGGGATCACTAGTTTTCACGTCATAAATATTACGAAGTGGAGATTCTGCCGGATGGATTTTATCTGGTTCCTGCATATTCAGCATATTAATCACCTTTTTTTACAAAGTCAGATAAAGTTTGTTTTTAAAAATATTAACTCATGAGATAGTATAAATTTCCTGTAGGCACATTATTTTTATGAACCCGATTTCACACTTTCTGTACTTCATTAAGATAGAGCGCCATATACAACGATTGGGAATT (double strand) [PcrtR-PcrtE intergenic probe]”, in data set [1], the binding result is recorded as “binds”. In the case of “AAAGTGTGAATTTGGGTCCATAAAAATAATGTGCCTACAAGAAATTTATAGTATCCCATGAGTTAATATTTTTAAAAATAAACTTTATCTGACTTTGTAGAAAAAGGTGATTACTATGCTGAATATGCAGGAACCAGATAA (double strand) [crtR-crtE footprint probes]”, the binding result in data set [2] is on record as “binds”.
